Each structure is given as a SMILES string. This is one part of the list. Measured potencies and affinities stand elsewhere.

In the assay the test system is Pseudomonas aeruginosa. As to conditions: Concentration 20 uM; ASSAY_TEST Inhibition of Bacterial Growth; detection method Absorption (OD600); MEDIA CAMHB; plate type 384well; NBS; CORNING #3640; time 18 hr.
By Inhibition is commonly meant the relative decrease from the control value, in per cent. Consider `CCSc1nc(C)c(C)c(O)n1`, for which the Inhibition turned out to be 15.41%.
For `O=C(/C=C/c1ccccc1)CC(c1ccccc1)N1CCOCC1` (stereo not given), the Inhibition stood at 14.74%.
For the molecule `Nc1ccn(C2OC(CCl)C(O)C2O)c(=O)n1` (stereo not given), the Inhibition came out at 16.62%.
As to `CCOCc1cc(O)nc(SC)n1`, the Inhibition is 23.12%.
For `C=CCN(CC=C)C(=O)Nc1cc(OC)ccc1OC` the value was 6.27%; for `COC(=O)C1=CC(=O)N2CCN=C2S1`, -6.18%; for `CC1(C)SC(C)(C)N(C=O)C1C(=O)O` (stereo not given), 3.14%.
To `CCCCNC(=O)Nc1ccccc1CC` belongs -8.63%.
As for `FC(F)(F)c1cccc(OCC2CN=C(S)O2)c1` (stereo not given), the Inhibition is reported as -3.56%.
For `COC1OCC(O)C(NC(=O)N(C)N=O)C1O` (stereo not given) the value was -13.74%; for `COc1cccc(NC(S)=Nc2ccc(O)cc2)c1`, 14.19%; for `CCOC(=O)Nc1cc2c(c(N)n1)N=C(c1ccccc1)CN2`, 29.95%.
To `CC(C)NCC1CCc2cc(CO)c([N+](=O)[O-])cc2N1` (stereo not given) [OXAMNIQUINE] belongs 6.47%.
To `Cc1nc([N+](=O)[O-])cn1-c1nc2ccccn2c1[N+](=O)[O-]` belongs 13.8%.
For the molecule `CC1(C)CC(Nc2ccc(Nc3ccccc3)cc2)CC(C)(C)N1`, the Inhibition is on record as 9.92%.
To `COc1cc2c(O)cc(C(=O)O)c(-c3cc(OC)c(OC)c(OC)c3)c2cc1OC` belongs 14.45%; to `CSc1ccc2c(c1)C(N1CCN(C)CC1)Cc1ccccc1S2.O=C(O)/C=C\C(=O)O` (stereo not given), 12.2%.
As to `CSC(=O)NC(=O)NC(=O)c1ccc([N+](=O)[O-])cc1`, the Inhibition was 11.58%.
For `O=[N+]([O-])c1cccnc1Oc1cc(Cl)c(Cl)cc1Cl` the value was 15.86%.
To `CCOc1ccc(/C=C2\NC(=S)NC2=O)cc1` belongs 1.39%.
`CCOC(=O)C1(C#N)C(=O)CS/C1=N/c1ccccc1Cl` (stereo not given): the Inhibition was found to be 17.1%.
To `Nc1ccc2c(c1Cl)C(=O)c1ccc(N)c(Cl)c1C2=O` belongs 19.37%.
To `Cn1c(C(=O)c2ccncc2)cc2ccccc21` belongs -4.83%; to `COc1ccc(C(=S)N2CCN(c3ccccc3C)CC2)cc1`, 16.4%.
For `Cc1c(Cl)cccc1NC(=O)CC1Sc2ccccc2NC1=O` (stereo not given) the value was -8.25%.
As to `COc1ccc2[nH]c(-c3ccccc3)cc2c1`, the Inhibition is recorded as 2.74%.
To `CCC12CCCN3CCc4c(n(c5ccccc45)C(O)(C(=O)OC)C1)C32` (stereo not given) belongs 20.2%; to `Cc1ccccc1N=C(S)Nc1ccccn1`, -17.56%; to `CC(C)c1cc(C(F)(F)F)nc(NNc2nc(C(C)C)cc(C(F)(F)F)n2)n1`, 8.62%.
To `O=C1c2cccc3cc([N+](=O)[O-])cc(c23)C(=O)N1CCN1CCCC1` [PINAFIDE] belongs -4.11%.
